These are yes or no findings as the source states them, for the method shown. Binding seen in cells or lysates may run through a third protein. A yes stands for co-enrichment or nearness to the bait. Other partners may have been found. For some assays here: Sequences can lack the tags named with a protein.

Amino acid sequences for entries named in this document (tags omitted). Residues count along the entry.
UniProt P0ADC1, residues 19-193: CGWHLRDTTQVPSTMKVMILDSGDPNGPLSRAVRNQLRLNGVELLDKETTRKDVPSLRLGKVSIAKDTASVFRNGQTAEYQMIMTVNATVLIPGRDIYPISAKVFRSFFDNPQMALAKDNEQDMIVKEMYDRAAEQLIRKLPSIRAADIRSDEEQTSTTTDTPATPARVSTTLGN

For one experiment, the target named is LptE^His (E. coli) (UniProt P0ADC1). In words: affinity purification with mass spectrometry; nickel-affinity chromatography and gel filtration of LptM^His (wild-type cells) or LptE^His (ΔlptM cells) from DDM-solubilised envelope; SDS-PAGE with Coomassie; ~15 kDa band identified by bottom-up mass spectrometry. For orientation: SEC sorts molecules by how far they enter the pores of the column.

The next experiment addresses T1, LptM^His (E. coli) (UniProt P0ADN6).
T1 sequence (chain, lipoprotein; acyl tails on the N-terminal Cys): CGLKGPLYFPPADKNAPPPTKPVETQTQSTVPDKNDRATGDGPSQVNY
The description is as above.

B1: LptY (natural protein, E. coli, UniProt P31063 16-137, looked up)
chain: CAEVENYNNVVKTPAPDWLAGYWQTKGPQRALVSPEAIGSLIVTKEGDTLDCRQWQRVIAVPGKLTLMSDDLTNVTVKRELYEVERDGNTIEYDGMTMERVDRPTAECAAALDKAPLPTPLP
modifications: lipoprotein
notes: LptY (formerly YedD), E. coli OM lipoprotein of ~14 kDa; an AlphaFold2 model was docked; also called YedD; source: endogenous, E. coli BW25113; co-purified with LptDEM^His or LptDE^His (Ni-NTA, SEC)
Turning to B1, the binding entry with LptE^His (E. coli) and with LptM^His (E. coli) was “binds” each time.
